Laboratory results as given in paper PMC5366180.
The exact form of at least one protein or probe is not confirmed. At least one result comes from cells or an extract, where the contact may be indirect.

The chains behind the UniProt entries cited, without tags or fusion partners. Residues count along the entry.
UniProt Q13308, 31-1070: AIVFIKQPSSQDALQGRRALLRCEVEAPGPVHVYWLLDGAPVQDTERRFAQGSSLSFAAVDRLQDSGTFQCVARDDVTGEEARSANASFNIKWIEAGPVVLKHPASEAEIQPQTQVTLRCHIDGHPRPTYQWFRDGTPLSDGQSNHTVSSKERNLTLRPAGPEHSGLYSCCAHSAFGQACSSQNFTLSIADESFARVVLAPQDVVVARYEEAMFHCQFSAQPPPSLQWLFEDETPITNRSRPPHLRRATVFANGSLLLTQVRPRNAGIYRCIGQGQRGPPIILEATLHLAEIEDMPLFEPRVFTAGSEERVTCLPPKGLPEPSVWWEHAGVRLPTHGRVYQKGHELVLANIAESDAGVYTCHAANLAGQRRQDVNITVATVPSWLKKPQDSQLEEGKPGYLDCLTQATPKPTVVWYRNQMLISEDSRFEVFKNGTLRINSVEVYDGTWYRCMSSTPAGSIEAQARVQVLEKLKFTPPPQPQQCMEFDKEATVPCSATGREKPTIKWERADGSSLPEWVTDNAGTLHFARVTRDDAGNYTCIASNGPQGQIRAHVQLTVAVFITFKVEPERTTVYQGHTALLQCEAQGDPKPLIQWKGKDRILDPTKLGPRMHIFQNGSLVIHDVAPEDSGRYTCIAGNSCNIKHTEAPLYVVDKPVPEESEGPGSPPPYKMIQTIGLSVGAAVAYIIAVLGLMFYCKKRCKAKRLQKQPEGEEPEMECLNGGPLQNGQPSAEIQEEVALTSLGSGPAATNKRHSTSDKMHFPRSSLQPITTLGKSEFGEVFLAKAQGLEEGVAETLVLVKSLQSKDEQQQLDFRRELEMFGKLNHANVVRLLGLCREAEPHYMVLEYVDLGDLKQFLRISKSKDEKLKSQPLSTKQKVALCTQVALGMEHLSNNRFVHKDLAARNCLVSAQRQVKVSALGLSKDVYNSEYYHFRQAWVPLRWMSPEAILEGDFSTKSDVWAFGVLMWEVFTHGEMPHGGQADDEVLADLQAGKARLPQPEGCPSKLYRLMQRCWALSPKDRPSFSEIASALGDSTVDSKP

Molecular target: protein tyrosine kinase-7 (PTK7) (UniProt Q13308)
Test: AFM topography and recognition imaging (TREC)
Conditions: 325 ± 12 PTK7 sites per um2, recognition abolished by free sgc8c; 5' NH2 or 5' SH; Aptamer tips prepared and stored in PBS; fixed Jurkat T-cells on Cell-Tak glass; pulling speeds 500-24000 nm/s; measurement buffer; protein on the cell surface; label: 5' PEG linker to AFM tip; single-stranded DNA

“ATCTAACTGCTGCGCCGCGAAAATACTGTACGGTTAGA [sgc8c (tip-tethered)]”: binds.
